Library screen at single concentrations

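Whole-cell growth test on Mycobacterium tuberculosis, read after 4 days in a medium based on cholesterol and the lipid DPPC; the read-out is not stated. Concentration: 50 µM. The record gives no direction; compounds that gave an IC50 in retests scored well above the rest, so higher reads as more growth inhibition. Size under these conditions: about 69,000 compounds, about 370 of them at 50% or above in at least one test.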

Each number is a percent effect as filed. The record does not define 0% and 100%; most values in the screen are far below 50% and negative numbers occur (in some assays of this library far below -100). Compounds were drawn at random from those tested, without regard to their results. Two or more numbers in one place are separate tests of the same structure; such repeats can differ widely.

{"compound": "Cc1ccccc1C(=O)NC(C)CN1CCOC1=O", "stereo": "centres unmarked", "Percent Effect": 4.356}
{"compound": "CCN(Cc1nc(C(C)C)no1)Cc1cccs1", "Percent Effect": -0.6772}
{"compound": "O=C(OCC1CCN(c2ccccc2)C1)c1cscn1", "stereo": "centres unmarked", "Percent Effect": -0.8577}
{"compound": "CC(NC(=O)NC1CC1)c1nc(-c2ccccc2)cs1", "stereo": "centres unmarked", "Percent Effect": -8.685}
{"compound": "COc1ccc(C(=O)NC2CC2)c(OC)c1", "Percent Effect": 9.698}
{"compound": "Cc1cnn(C2CN(CC(O)COCc3ccc4c(c3)OCO4)C2)c1", "stereo": "centres unmarked", "Percent Effect": -13.28}
{"compound": "Cc1cc(NCc2noc(C(C)C)n2)nc(-c2ccccc2)n1", "Percent Effect": -10.04}
{"compound": "CNC(=O)c1cc2c(nc1N(C)C)CCN(c1ncccn1)CC2.O=C(O)C(F)(F)F", "Percent Effect": -17.91}
{"compound": "O=C(O)[C@@H]1CN(C(=O)NCC2CCCCC2)C[C@H]1c1ccccn1", "Percent Effect": "8.983 and 55.74"}
{"compound": "Cn1cc(C(=O)NCc2ccc(N3CCNC(=O)C3)c(F)c2)cn1", "Percent Effect": "-13.15 and 3.878"}
{"compound": "[H][C@]12CC[C@@]3(N=C(CC)N(CC(C)C)C3=O)[C@@]1([H])CN(S(C)(=O)=O)C2", "Percent Effect": "-2.625 and -10.44"}
{"compound": "Cn1cnc2c1CCN(Cc1noc(-c3ccccc3)n1)C2", "Percent Effect": 15.47}
{"compound": "CN(C)CCN(Cc1ccsc1)C(=O)C1=NNC(=O)CC1", "Percent Effect": 10.18}
{"compound": "CC(C)c1nnc2n1CCN(C(=O)c1ccc(OCC(N)=O)cc1)C2", "Percent Effect": 9.247}
{"compound": "Nc1ccnc(CNc2cc(F)ccc2OCC2CCCO2)n1", "stereo": "centres unmarked", "Percent Effect": 9.617}
{"compound": "[H][C@]12CCN(C(=O)NCc3ccccc3)C[C@@]1([H])OCCN(CC)C2", "Percent Effect": 8.914}
{"compound": "CCC(CC)NC(=O)CN1CCN(C(=O)N(C)C)CC1", "Percent Effect": -3.448}
{"compound": "Cc1cc(-c2cnc(N3CCOCC3)nc2-c2cccnc2C)on1", "Percent Effect": -14.29}
{"compound": "O=C(c1ccc(N2CCCC2)nc1)N1CCCC(n2cncn2)C1", "stereo": "centres unmarked", "Percent Effect": -8.035}
{"compound": "CN(Cc1ccccc1-n1cccn1)c1nc(N)nc2c1CCNCC2", "Percent Effect": -3.347}
{"compound": "CC(C)N(C)Cc1cncc2c1CCN(Cc1ccoc1)C2.Cl.Cl.Cl", "Percent Effect": -1.752}
{"compound": "Cc1nsc(NCc2ccc(CS(=O)(=O)NC(C)C)cc2)n1", "Percent Effect": -20.65}
{"compound": "Fc1ccc(CNCCn2cccn2)c(Cl)c1", "Percent Effect": 2.696}
{"compound": "[H][C@@]12CCN(Cc3nccs3)C[C@@]1([H])O[C@H](C)C2", "Percent Effect": 11.76}
{"compound": "[H][C@@]12CN(Cc3scnc3C)C[C@@H](C(=O)NCC3CC3)[C@]1([H])CCO2", "Percent Effect": 13.66}
{"compound": "COCCN(c1ccncc1)S(=O)(=O)c1cc(C)c(F)cc1F", "Percent Effect": -27.19}
{"compound": "Cc1ccc(CN2CCCn3cnc(COCC4CC4)c3C2)o1.O=C(O)C(F)(F)F", "Percent Effect": 4.35}
{"compound": "CC(=O)NCCC(=O)N(C/C=C/c1ccccc1)CCO", "Percent Effect": -17.05}
{"compound": "CSc1[nH]nc(NC(=O)c2ccncc2)c1C#N", "Percent Effect": -19.51}
{"compound": "O=C(O)C(F)(F)F.O=S(=O)(C1CC1)N1CC[C@H](OCC2CC2)[C@@H]1Cc1cccnc1", "Percent Effect": 15.26}
{"compound": "CCOC(C)c1nc(CN2CCN(CC(F)F)CC2)cs1", "stereo": "centres unmarked", "Percent Effect": "19.56 and -2.601"}
{"compound": "Cc1n[nH]c(C)c1C1CCCN1C(=O)CNC(=O)C(C)(C)C", "stereo": "centres unmarked", "Percent Effect": 9.345}
{"compound": "COc1cc(NC(=O)N(C)C(C2CC2)C2CC2)ncn1", "Percent Effect": -16.24}
{"compound": "O=C1COc2ccc(S(=O)(=O)NCC3CCCO3)c3c2N1CCC3", "stereo": "centres unmarked", "Percent Effect": 17.37}
{"compound": "CCN(Cc1cccnc1)CC1CCCO1", "stereo": "centres unmarked", "Percent Effect": -8.78}
{"compound": "Cc1ccccc1CNC(=O)CN1CCCC(Cc2nccn2C)C1", "stereo": "centres unmarked", "Percent Effect": 11.35}
{"compound": "Cc1nnc(SCCNc2cc(C3CC3)ncn2)s1", "Percent Effect": 19.65}
{"compound": "Cn1ncc2c1NC(=O)CC2c1ccc(Cl)cc1Cl", "stereo": "centres unmarked", "Percent Effect": 32.65}
{"compound": "CNc1ncc(-c2csc(NC(=O)C[C@H]3COCCN3)n2)cn1.Cl", "Percent Effect": -1.555}

The first 4 entries again:

- Cc1ccccc1C(=O)NC(C)CN1CCOC1=O (centres unmarked) | 4.356%
- CCN(Cc1nc(C(C)C)no1)Cc1cccs1 | -0.6772%
- O=C(OCC1CCN(c2ccccc2)C1)c1cscn1 (centres unmarked) | -0.8577%
- CC(NC(=O)NC1CC1)c1nc(-c2ccccc2)cs1 (centres unmarked) | -8.685%

Data taken from ChEMBL document CHEMBL3988442, “University of Dundee, Small-Polar-MMV Screening Library” (2021).